Article PMC5061411
These are yes or no findings as the source states them, for the method shown. In cells and extracts the contact can be indirect. Some entries that bind do so weakly or less than the wild type.

Chains of the proteins cited; added tags and fusions are not shown.
UniProt Q9WU70: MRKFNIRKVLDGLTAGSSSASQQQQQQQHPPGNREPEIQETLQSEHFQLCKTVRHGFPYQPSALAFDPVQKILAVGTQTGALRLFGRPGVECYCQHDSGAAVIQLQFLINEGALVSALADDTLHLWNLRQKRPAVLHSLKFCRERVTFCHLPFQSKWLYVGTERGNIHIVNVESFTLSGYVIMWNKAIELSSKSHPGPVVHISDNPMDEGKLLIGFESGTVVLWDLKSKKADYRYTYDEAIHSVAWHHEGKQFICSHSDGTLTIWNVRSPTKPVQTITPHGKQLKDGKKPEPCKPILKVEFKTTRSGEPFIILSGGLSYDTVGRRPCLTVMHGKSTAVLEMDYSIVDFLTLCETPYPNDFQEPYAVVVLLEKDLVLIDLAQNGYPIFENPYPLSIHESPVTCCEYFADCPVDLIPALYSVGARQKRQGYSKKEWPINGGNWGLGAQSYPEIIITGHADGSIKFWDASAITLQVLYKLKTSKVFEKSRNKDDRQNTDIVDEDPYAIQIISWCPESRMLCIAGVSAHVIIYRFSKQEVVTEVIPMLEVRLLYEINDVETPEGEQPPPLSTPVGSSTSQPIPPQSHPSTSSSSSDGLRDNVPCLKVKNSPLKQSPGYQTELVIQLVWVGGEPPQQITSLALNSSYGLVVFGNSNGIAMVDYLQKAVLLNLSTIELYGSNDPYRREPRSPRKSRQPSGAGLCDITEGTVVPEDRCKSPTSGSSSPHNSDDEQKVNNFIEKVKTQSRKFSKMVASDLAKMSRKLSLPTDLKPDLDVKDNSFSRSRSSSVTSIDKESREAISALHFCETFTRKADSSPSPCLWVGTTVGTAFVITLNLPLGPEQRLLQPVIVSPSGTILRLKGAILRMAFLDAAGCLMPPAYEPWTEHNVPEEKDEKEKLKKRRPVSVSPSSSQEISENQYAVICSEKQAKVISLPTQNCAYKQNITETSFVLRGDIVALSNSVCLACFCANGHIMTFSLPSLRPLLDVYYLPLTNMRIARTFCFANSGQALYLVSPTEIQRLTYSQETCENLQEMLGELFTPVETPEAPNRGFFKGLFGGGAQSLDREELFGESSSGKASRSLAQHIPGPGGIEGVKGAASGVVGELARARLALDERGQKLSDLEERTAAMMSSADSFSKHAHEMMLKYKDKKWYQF
UniProt P60953: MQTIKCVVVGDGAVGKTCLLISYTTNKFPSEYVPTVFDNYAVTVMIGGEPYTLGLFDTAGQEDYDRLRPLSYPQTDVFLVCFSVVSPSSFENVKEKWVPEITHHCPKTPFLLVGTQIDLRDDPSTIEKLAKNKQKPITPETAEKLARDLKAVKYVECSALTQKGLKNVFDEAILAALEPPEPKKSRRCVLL
UniProt P60879: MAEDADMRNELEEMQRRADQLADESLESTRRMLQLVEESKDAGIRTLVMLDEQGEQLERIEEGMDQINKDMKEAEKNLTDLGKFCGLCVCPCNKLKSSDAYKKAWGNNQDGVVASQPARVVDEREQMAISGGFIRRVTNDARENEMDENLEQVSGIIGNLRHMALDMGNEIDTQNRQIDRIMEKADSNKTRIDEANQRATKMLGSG
UniProt P61265: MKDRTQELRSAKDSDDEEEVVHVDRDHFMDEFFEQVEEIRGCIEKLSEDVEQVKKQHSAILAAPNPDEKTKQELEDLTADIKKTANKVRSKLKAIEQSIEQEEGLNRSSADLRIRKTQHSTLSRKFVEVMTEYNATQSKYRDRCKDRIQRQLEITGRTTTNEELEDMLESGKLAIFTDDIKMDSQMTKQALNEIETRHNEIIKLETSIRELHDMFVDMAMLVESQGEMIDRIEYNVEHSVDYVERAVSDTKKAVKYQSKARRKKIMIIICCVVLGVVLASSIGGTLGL
UniProt P60881: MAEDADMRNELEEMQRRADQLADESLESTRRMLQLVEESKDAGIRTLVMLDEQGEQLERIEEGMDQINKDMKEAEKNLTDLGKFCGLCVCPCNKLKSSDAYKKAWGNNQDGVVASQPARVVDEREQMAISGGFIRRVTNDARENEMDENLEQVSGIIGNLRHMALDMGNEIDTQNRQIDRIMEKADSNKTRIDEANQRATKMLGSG

Experiments:
[1] = target: tomosyn-1 (syntaxin binding protein 5) (rat (endogenous in rat posterior pituitary)) (UniProt Q9WU70); assay: co-IP; precleared rat posterior pituitary lysate; IP antibodies to tomosyn, SNAP25, syntaxin 1A or syntaxin 1B on protein A/G Sepharose or ImmunoCruz IP matrix, 4°C; control IgG; washed four times with the wash buffer of the in vitro binding assay; western blot
GST-cdc42-GTPγS = GST-cdc42-GTPγS (UniProt P60953); assay: pull-down; GST-SNAP25 or GST-cdc42-GTPγS with glutathione Sepharose 4B mixed with precleared rat posterior pituitary lysate overnight at 4°C; washed four times with 10 mM HEPES-NaOH (pH 7.4), 1 mM CaCl2, 50 mM NaCl, 5 mM MgCl2; eluted in SDS sample buffer; silver staining and western blot with anti-tomosyn; only the target purified
GST-SNAP25 (mouse) = GST-SNAP25 (mouse) (UniProt P60879); assay: as above
[2] = target: syntaxin 1B (rat (endogenous in rat posterior pituitary)) (UniProt P61265); assay: co-IP; precleared rat posterior pituitary lysate; IP antibodies to tomosyn, SNAP25, syntaxin 1A or syntaxin 1B on protein A/G Sepharose or ImmunoCruz IP matrix, 4°C; control IgG; washed four times with the wash buffer of the in vitro binding assay; western blot
[3] = target: SNAP25 (rat (endogenous in rat posterior pituitary)) (UniProt P60881); assay: as above

Substance | binding [1] | binding (GST-cdc42-GTPγS) | binding (GST-SNAP25 (mouse)) | binding [2] | binding [3]
syntaxin 1B (from UniProt P61265 1-288) | binds | – | – | – | –
SNAP25 (from UniProt P60881 1-206) | binds | – | – | – | –
tomosyn-1 (syntaxin binding protein 5) (from UniProt Q9WU70 1-1152) | – | no binding | binds | binds | binds
